Experimental data from PubChem BioAssay AID200 (DTP/NCI, 2004).
The list is a part of this screen's results and no random one: it gathers tests that were run many times, whatever their T/C, doses with no T/C, and many T/C values between a quarter and a half above the control. Further doses and runs are listed elsewhere. T/C: endpoint of the treated group in % of that of the vehicle group. Some doses have a count of surviving animals in place of a T/C: the source holds a T/C of zero for them, seemingly a mark for toxic or unscored doses. Some survivor counts are full or nearly so, which does not show that the dose was tolerated: survival well below the control is almost never listed, so the zero probably covers shortened survival too. Counts of survivors are from the toxicity check (mostly the fifth day) where no day follows; animals may have died later. Schedule codes are those of the source, taken here to give the interval after Q, in days (D) or hours (H), and the number of doses after X. Marks such as (2×) stand for listed records that agree. Some entries were tested several times; their values stand side by side, smallest first. For survival time, this PubChem deposit counts one and a half times the control or more as active, and values a quarter to a half above the control carry no call in these data; other NCI protocols may use other cut-offs. Some T/C values carry the count of animals alive at the toxicity check (mostly the fifth day); without a count, all were alive then.

System: B6C3F1 mice, B16 melanoma ip, median survival T/C
Assay: NCI In Vivo Anticancer Drug Screen. Data for tumor model B16 Melanoma (intraperitoneal) in B6C3F1 mice
Conditions: T/C endpoint: median survival time, schedule: Q01DX009 (ip), higher T/C = longer survival
How it was run: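 Antitumor effect was judged in mice with transplanted tumors by dividing the treated group's survival measure by that of vehicle controls.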

[1] = dose: 200.0 mg/kg/injection, vehicle: saline with Tween-80
[2] = dose: 400.0 mg/kg/injection, vehicle: saline with Tween-80
[3] = dose: 200.0 mg/kg/injection, vehicle: saline
[4] = dose: 0.06 mg/kg/injection, vehicle: water
[5] = dose: 1.0 mg/kg/injection, vehicle: water
[6] = dose: 12.5 mg/kg/injection, vehicle: saline
[7] = dose: 100.0 mg/kg/injection, vehicle: saline
[8] = dose: 400.0 mg/kg/injection, vehicle: saline
[9] = dose: 500.0 micrograms/kg/injection, vehicle: water
[10] = dose: 1000.0 micrograms/kg/injection, vehicle: water
[11] = dose: 200.0 mg/kg/injection, vehicle: Klucel (hydroxypropylcellulose) (HPC)

In the case of COCCCNC1=C(C#N)C(=O)NC(c2cccc([N+](=O)[O-])c2)S1 (stereo unspecified), the T/C (dose: 12.5 mg/kg/injection, vehicle: saline with Tween-80, evaluated on day 40) was 135 % of control, the T/C (dose: 12.5 mg/kg/injection, vehicle: saline with Tween-80, evaluated on day 45) was 100 and 106 % of control and the T/C (dose: 12.5 mg/kg/injection, vehicle: saline with Tween-80, evaluated on day 60) was 106 % of control. For the same compound, the T/C (dose: 25.0 mg/kg/injection, vehicle: saline with Tween-80, evaluated on day 40) was 118 % of control, the T/C (dose: 25.0 mg/kg/injection, vehicle: saline with Tween-80, evaluated on day 45) was 113 and 120 % of control and the T/C (dose: 25.0 mg/kg/injection, vehicle: saline with Tween-80, evaluated on day 60) was 98 % of control. For the same compound, the survivor count [1] was 10 of 10 and the survivor count [2] was 9 of 10.
CCCCCCCCCCS(=O)CC(CO)NC(=O)/C=C/c1c(C)[nH]c(=O)[nH]c1=O (stereo unspecified) was tested, and the survivor count (dose: 12.0 mg/kg/injection, vehicle: distilled water + Tween-80) was 10 of 10 and the survivor count (dose: 12.0 mg/kg/injection, vehicle: water) was 8 of 10.
In the case of COC1C(/C=C/C(C)=O)OC2OC(C)(C)OC21 (stereo unspecified), the survivor count [3] was 4 of 10 and 6 of 10.
With COc1cc2c(c(OC)c1OC)-c1ccc(OC)c(=O)cc1[C@@H](NC(C)=O)CC2 the T/C [4] was 129 % of control, the T/C (dose: 0.09 mg/kg/injection, vehicle: saline) was 139 % of control and the T/C (dose: 0.12 mg/kg/injection, vehicle: water) was 140 % of control [9 of 10 alive]. For the same compound, the T/C (dose: 0.13 mg/kg/injection, vehicle: saline) was 144 % of control, the T/C (dose: 0.25 mg/kg/injection, vehicle: water) was 148 % of control and the survivor count (dose: 1.0 mg/kg/injection, vehicle: Klucel (hydroxypropylcellulose) (HPC)) was 7 of 10. The T/C [5] was 140 % of control [8 of 10 alive], the survivor count (dose: 1.5 mg/kg/injection, vehicle: saline) was 2 of 10 and the survivor count (dose: 2.0 mg/kg/injection, vehicle: saline) was 10 of 10. The survivor count (dose: 3.0 mg/kg/injection, vehicle: saline) was 0 of 10, the survivor count (dose: 6.0 mg/kg/injection, vehicle: saline) was 0 of 10 and the survivor count (dose: 12.0 mg/kg/injection, vehicle: saline) was 0 of 10. For the same compound, the survivor count [6] was 0 of 10, the survivor count (dose: 25.0 mg/kg/injection, vehicle: saline) was 0 of 10 and the survivor count (dose: 50.0 mg/kg/injection, vehicle: saline) was 0 of 10. For the same compound, the survivor count [7] was 0 of 10, the survivor count [3] was 0 of 10 and the survivor count [8] was 0 of 10. For the same compound, the T/C (dose: 62.0 micrograms/kg/injection, vehicle: water) was 129 % of control, the T/C (dose: 62.5 micrograms/kg/injection, vehicle: water) was 141 % of control and the T/C (dose: 125.0 micrograms/kg/injection, vehicle: water) was 145 % of control. The T/C (dose: 250.0 micrograms/kg/injection, vehicle: water) was 139 % of control, the T/C [9] was 149 % of control [7 of 10 alive] and the survivor count [10] was 0 of 10 and 8 of 10.
Brc1c(NC2=NCCN2)ccc2nccnc12 was tested, and the survivor count [7] was 8 of 10 and the survivor count [3] was 8 of 10.
In the case of COc1cc(C2c3cc4c(cc3[C@@H](OC3OC5CO[C@@H](C)OC5C(O)C3O)[C@H]3COC(=O)C23)OCO4)cc(OC)c1OC (stereo partly specified), the T/C [6] was 128 % of control, the T/C (dose: 36.0 mg/kg/injection, vehicle: suspension in saline) was 139 % of control and the survivor count (dose: 166.67 mg/kg/injection, vehicle: suspension in saline) was 10 of 10. For the same compound, the survivor count [3] was 10 of 10.
In the case of COC1/C=C/C=C(/C)Cc2cc(O)c(Cl)c(c2)N(C)C(=O)CC(OC(=O)C(C)C)C2(C)OC2C(C)C2CC1(O)NC(=O)O2 (stereo unspecified), the T/C (dose: 0.12 mg/kg/injection, vehicle: saline + alcohol) was 142 % of control, the T/C (dose: 1.0 mg/kg/injection, vehicle: saline + alcohol) was 147 % of control and the survivor count (dose: 2.0 mg/kg/injection, vehicle: saline + alcohol) was 8 of 10. The survivor count (dose: 4.0 mg/kg/injection, vehicle: saline + alcohol) was 1 of 10, the T/C (dose: 50.0 micrograms/kg/injection, vehicle: saline + alcohol) was 138 % of control and the T/C (dose: 100.0 micrograms/kg/injection, vehicle: saline + alcohol) was 141 % of control. For the same compound, the T/C (dose: 200.0 micrograms/kg/injection, vehicle: saline + alcohol) was 144 % of control and the T/C (dose: 800.0 micrograms/kg/injection, vehicle: saline + alcohol) was 145 % of control.
In the case of COc1cc2cc3cc4cc(OC)c(OC)cc4c(C)[n+]3cc2cc1OC (tested in a mixture with another compound), the survivor count [3] was 10 of 10 and the survivor count [8] was 7 of 10.
CN=S(=O)(OCCCCCOS(=O)(=NC)c1ccc(C)cc1)c1ccc(C)cc1 (stereo unspecified) was tested, and the survivor count [1] was 1 of 10 and the survivor count [2] was 1 of 10.
With Nc1nc([Se]c2nc(N)nc3c2ncn3C2OC(CO)C(O)C2O)c2ncn(C3OC(CO)C(O)C3O)c2n1 (stereo unspecified) the survivor count (dose: 400.0 mg/kg/injection, vehicle: distilled water + Tween-80) was 3 of 10.
N#CC(C#N)=NNc1ccc2cn[nH]c2c1 was tested, and the survivor count [11] was 8 of 10.
CC(C)(C)SCC(NC(=O)OCC1c2ccccc2-c2ccccc21)C(=O)O (stereo unspecified) was tested, and the survivor count [11] was 1 of 10 and the survivor count (dose: 400.0 mg/kg/injection, vehicle: Klucel (hydroxypropylcellulose) (HPC)) was 0 of 10.
For CC[C@]1(O)C[C@H]2CN(CCc3c([nH]c4ccccc34)[C@@](C(=O)OC)(c3cc4c(cc3OC)N(C=O)[C@H]3[C@@](O)(C(=O)OC)[C@H](OC(C)=O)[C@]5(CC)C=CCN6CC[C@]43[C@@H]65)C2)C1, the T/C (dose: 0.01 mg/kg/injection, vehicle: saline) was 138 % of control, the T/C (dose: 0.03 mg/kg/injection, vehicle: saline) was 132 % of control and the T/C (dose: 0.06 mg/kg/injection, vehicle: saline) was 145 % of control. The survivor count [4] was 10 of 10, the survivor count (dose: 0.5 mg/kg/injection, vehicle: saline) was 9 of 10 and the survivor count (dose: 0.5 mg/kg/injection, vehicle: water) was 10 of 10 (2×). For the same compound, the survivor count (dose: 1.0 mg/kg/injection, vehicle: saline) was 4 of 10, the survivor count [5] was 8 of 10 and 9 of 10 and the survivor count (dose: 2.0 mg/kg/injection, vehicle: water) was 4 of 10 and 7 of 10. The survivor count (dose: 4.0 mg/kg/injection, vehicle: water) was 0 of 10, the T/C (dose: 15.63 micrograms/kg/injection, vehicle: water) was 147 % of control and the survivor count [9] was 10 of 10. The survivor count [10] was 4 of 10.
With CC(=O)Oc1[nH]c(=O)c2cccc3c2c1CCC3 the survivor count (dose: 800.0 mg/kg/injection, vehicle: saline with Tween-80) was 9 of 10.
